# In PubChem BioAssay AID485314 (National Center for Advancing Translational Sciences (NCATS), 2010):
# About 4,500 (1.3%) of roughly 340,000 compounds were called active. Inconclusive means that the source gave no clear call. Such entries were picked first, then a sample of the others. Calls follow the shape of the dose curve; as a rule, active = well fitted inhibition curve with a large enough effect; inconclusive = small, poorly fitted or top-dose-only effect, or another doubt; inactive = no such curve, though single readings can be large or run the other way. Where the call is inconclusive, the potency comes from a doubtful curve fit.
# Target: DNA polymerase beta (Homo sapiens) (UniProt P06746)
# Assay: qHTS Assay for Inhibitors of DNA Polymerase Beta
# Details: Pol beta primer extension/strand displacement, fluorescence kinetic; activity change, negative = inhibition: at 114 µM (top of the series)
# How it was run: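 Pol beta (10 nM) and compounds were preincubated 15 min at room temperature, then 50 nM substrate (final) started primer extension/strand displacement. Reads were taken at 0 and 10 min; concentration-response data were fitted to a four-parameter Hill equation.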
# % is scaled to controls: 0 for no effect and ±100 for the full control effect; potency is read from the fitted curve at half-maximal effect.
Compound,Potency,"activity change, negative = inhibition"
Cc1ccc(NC(=O)COc2ccc(Br)cc2C)cc1,"inconclusive: 0.708 µM [inhibitor, full curve]",–
CC(C(=O)Nc1ccccn1)c1ccccc1 (stereo not drawn),"inconclusive: 89.1 µM [inhibitor, single point]",–
Cc1cc(C)n(-c2nc(Nc3ccccc3)nc(-n3nc(C)cc3C)n2)n1,active: 10 µM,–
O=C(CNC(=O)c1ccccc1F)N/N=C/c1cc(Br)ccc1OC(=O)/C=C/c1ccco1,"inconclusive: 20 µM [inhibitor, full curve]",–
COc1ccccc1-c1cc(C(F)(F)F)nc(S(=O)(=O)CCCC(=O)Nc2ccc(F)cc2F)n1,"inconclusive: 14.1 µM [inhibitor, partial curve, poor fit]",–
Cc1ccc(NC(=O)CSc2nc(CSc3ccc(C)cc3)cc(=O)[nH]2)cc1,–,inactive: 0.354%
Cc1nc(-c2ccccc2)sc1C1(C)CC(c2ccc(OC(F)(F)F)cc2)=NO1 (stereo not drawn),–,inactive: 12.3%
CCc1ccccc1NC(=O)CSc1nc2ccccc2n1CC(=O)N(C)C,"inconclusive: 89.1 µM [inhibitor, single point]",–
COc1ccccc1N1CCN(S(=O)(=O)c2ccc(-c3coc(C)n3)cc2)CC1,"inconclusive: 10 µM [inhibitor, partial curve]",–
CCCOc1ccc(CNC(=O)Cn2ncc3ccccc32)cc1,"inconclusive: 7.94 µM [inhibitor, partial curve]",–
COc1ccc2c(c1)CC(C(=O)Nc1ccc(Br)c(C)c1)CO2 (stereo not drawn),"inconclusive: 39.8 µM [inhibitor, single point]",–
CCN(C(=O)CSc1nc(-c2ccc(C(C)C)cc2)no1)c1ccccc1,"inconclusive: 50.1 µM [inhibitor, partial curve]",–
Cc1nc(NC(=O)/C=C/c2ccco2)sc1C,"inconclusive: 39.8 µM [inhibitor, partial curve]",–
COc1ccc(C(=O)Nc2nnc(CCc3ccccc3)s2)c(OC)c1,"inconclusive: 0.141 µM [inhibitor, full curve, poor fit]",–
O=C(c1cc2c(F)cccc2s1)N1CCCC1,"inconclusive: 0.282 µM [inhibitor, full curve, poor fit]",–
CC(=O)Nc1ccc(S(=O)(=O)Nc2ccc(Cc3ccncc3)cc2)cc1,"inconclusive: 2.51 µM [inhibitor, partial curve, poor fit]",–
O=c1c2ccccc2sn1-c1ccc(S(=O)(=O)N2CCCC2)cc1,–,inactive: -18.2%
COc1ccc(-c2nn(-c3ccccc3)cc2C(=O)Nc2nccs2)cc1,–,inactive: 4.97%
COc1ccc2c(c1)c(C(=O)N/N=C/c1ccc(O)c(O)c1)c(C)n2C,"inconclusive: 44.7 µM [inhibitor, partial curve]",–
Cc1ccc(SCCNC(=O)CN(c2cccc(C)c2C)S(C)(=O)=O)cc1,–,inactive: 3.29%
CC(C)c1ccc(NC(=O)Cn2nnc(C(=O)NCCc3ccccc3)c2N)cc1,active: 7.94 µM,–
Cn1c(CNC(=O)c2ccc(Cl)cc2)nnc1SCC(=O)Nc1sc2c(c1C#N)CCCC2,"inconclusive: 28.2 µM [inhibitor, partial curve]",–
COc1ccccc1N1CCN(c2ncc3c(n2)CCN(Cc2ccccc2C)C3)CC1,–,inactive: -0.734%

# A run of entries from the list above, as a working copy:
Compound,Potency,"activity change, negative = inhibition"
Cc1cc(C)n(-c2nc(Nc3ccccc3)nc(-n3nc(C)cc3C)n2)n1,active: 10 µM,–
O=C(CNC(=O)c1ccccc1F)N/N=C/c1cc(Br)ccc1OC(=O)/C=C/c1ccco1,"inconclusive: 20 µM [inhibitor, full curve]",–
COc1ccccc1-c1cc(C(F)(F)F)nc(S(=O)(=O)CCCC(=O)Nc2ccc(F)cc2F)n1,"inconclusive: 14.1 µM [inhibitor, partial curve, poor fit]",–
Cc1ccc(NC(=O)CSc2nc(CSc3ccc(C)cc3)cc(=O)[nH]2)cc1,–,inactive: 0.354%
Cc1nc(-c2ccccc2)sc1C1(C)CC(c2ccc(OC(F)(F)F)cc2)=NO1 (stereo not drawn),–,inactive: 12.3%
CCc1ccccc1NC(=O)CSc1nc2ccccc2n1CC(=O)N(C)C,"inconclusive: 89.1 µM [inhibitor, single point]",–

# (listing goes on)

Compound,Potency,"activity change, negative = inhibition"
O=C(N/N=C/c1ccco1)c1ccc(N2CCCC2=O)cc1,"inconclusive: 20 µM [inhibitor, full curve]",–
COC(=O)c1sc(N)c(C(=O)OC)c1COC(=O)C1CC(=O)N(Cc2ccco2)C1 (stereo not drawn),active: 11.2 µM,–
O=C(c1ccco1)N1CCN(Cc2cccc([N+](=O)[O-])c2)CC1,"inconclusive: 56.2 µM [inhibitor, partial curve]",–
Cc1ccc(S(=O)(=O)c2ncccc2[N+](=O)[O-])cc1,–,inactive: 0.456%
O=C(O)c1ccc(Oc2ccc(S(=O)(=O)c3ccc(C(=O)O)c(C(=O)O)c3)cc2)cc1,"inconclusive: 79.4 µM [inhibitor, partial curve]",–
CCN(c1ccccc1)c1ncnc2c1cnn2-c1ccc(OC)cc1,–,inactive: -1.77%
COc1ccc(CCNC(=O)c2ccc3nc(-c4ccco4)c(-c4ccco4)nc3c2)cc1OC,active: 35.5 µM,–
O=C(O)c1ccc(COc2ccc3ccccc3c2/C=C2/NC(=O)N(Cc3ccc(F)cc3)C2=O)cc1,active: 22.4 µM,–
CC(C)C[C@H](NC(=O)c1nc[nH]c1C(=O)NC1CCN(C(=O)OC(C)(C)C)CC1)C(=O)OCc1ccccc1,"inconclusive: 44.7 µM [inhibitor, partial curve]",–
COc1ccc(OC)c(Nc2nc(-c3ccc(O)c(O)c3)cs2)c1,"inconclusive: 1.78 µM [inhibitor, full curve]",–
O=C(N/N=C/c1ccc(Cl)c(Cl)c1)c1ccc2nc[nH]c2c1,"inconclusive: 6.31 µM [inhibitor, single point]",–
CC(C)C[C@H](NC(=O)c1nc[nH]c1C(=O)NCc1ccc(CNC(=O)OC(C)(C)C)cc1)C(=O)OCc1ccccc1,"inconclusive: 17.8 µM [inhibitor, full curve, poor fit]",–
CC(C)S(=O)(=O)C1=NSC2=NC(=O)/C(=C\c3ccc(-c4ccccc4)o3)C(=N)N21,active: 79.4 µM,–
O=S(N1CCCCCC1)C12CC3CC(CC(C3)C1)C2 (stereo not drawn),"inconclusive: 20 µM [inhibitor, partial curve]",–
Cc1ccc(C(=O)NC2CCN(C(=O)NCc3ccccc3)CC2)cc1,"inconclusive: 25.1 µM [inhibitor, single point]",–
CC(=O)Nc1ccc(S(=O)(=O)Nc2nc3ccccc3nc2Nc2ccc3ccccc3c2)cc1,"inconclusive: 39.8 µM [inhibitor, single point]",–
O=C(O)CCc1ccc(-c2ccc(Cl)cc2)n1Cc1ccco1,"inconclusive: 50.1 µM [inhibitor, partial curve]",–
Cc1ccc(SCC(=O)Nc2ccc(O)c(-c3nc4cc(C)ccc4o3)c2)cc1,–,inactive: -0.472%
Cn1cc(Cl)c(C(=O)Nc2cccc(Cl)c2Cl)n1,"inconclusive: 7.08 µM [inhibitor, full curve]",–
Cc1cc(OC(C)C(=O)NCc2cccnc2)c2c(C)c(Cc3ccccc3)c(=O)oc2c1 (stereo not drawn),"inconclusive: 89.1 µM [inhibitor, single point]",–
CC(C)OC(=O)c1c2c(n3ccccc13)C(=O)c1ccccc1C2=O,–,inactive: -5.16%
CN(C)CCNC(=O)c1cc(Sc2ccc(F)cc2)nc2ccccc12,–,inactive: 0.463%
O=C(COc1cccnc1[N+](=O)[O-])c1ccc(Cl)s1,active: 31.6 µM,–

Compound,Potency,"activity change, negative = inhibition"
CC(C)(C)NC(=O)C1CCN(C(=O)c2ccc(Br)cc2)CC1,"inconclusive: 100 µM [inhibitor, single point]",–
O=C(O/N=C(/c1ccccc1)c1ccncc1)c1ccc(F)cc1,"inconclusive: 79.4 µM [inhibitor, single point]",–
O=C(c1cccs1)c1ccc(-c2cccs2)s1,"inconclusive: 12.6 µM [inhibitor, partial curve, poor fit]",–
Fc1ccc(-c2cnc[nH]2)cc1,"inconclusive: 0.355 µM [inhibitor, partial curve, poor fit]",–
O=C(CCN1C(=O)/C(=C/c2cccs2)SC1=S)Nc1ccc(C(=O)O)c(O)c1,"inconclusive: 70.8 µM [inhibitor, single point]",–
Cc1ccc(NC(=O)N/C=C/c2ccco2)c(C)c1,"inconclusive: 50.1 µM [inhibitor, partial curve]",–
Cc1noc(NS(=O)(=O)c2ccc(NC(=O)c3ccc(N4C(=O)c5ccccc5C4=O)cc3)cc2)c1C,active: 35.5 µM,–
O=C(C1CCC1)N1CCN(c2cccc(C(F)(F)F)c2)CC1,"inconclusive: 25.1 µM [inhibitor, full curve, poor fit]",–
O=C1CCCC2=C1C1(CCCC1)N=C(Nc1nc3ccccc3o1)N2,–,inactive: 0.601%
O=c1cc(O)n(-c2ccccc2F)c(=S)[nH]1,"inconclusive: 0.1 µM [inhibitor, full curve, poor fit]",–
COC(=O)c1ccccc1NC1=C/C(=N\S(=O)(=O)c2ccc(C(=O)O)cc2)c2ccccc2C1=O,active: 31.6 µM,–
COCCNC(=O)C(c1ccc(C)o1)N(C(=O)c1snc(C(N)=O)c1N)c1ccc(C)cc1 (stereo not drawn),"inconclusive: 4.47 µM [inhibitor, full curve]",–
COc1ccc(Cl)cc1NC(=O)C/C(C)=N/NC(=O)c1ccc(O)cc1,"inconclusive: 39.8 µM [inhibitor, partial curve]",–
C=CCc1cc(/C=C2/NC(=O)NC2=O)cc(OCC)c1O,"inconclusive: 100 µM [inhibitor, single point]",–
NC1=NC(=O)/C(=C/c2ccc(-c3ccc(S(N)(=O)=O)cc3)o2)S1,"inconclusive: 39.8 µM [inhibitor, partial curve]",–
O=C(N/N=C/c1cc(Br)c(O)c(Br)c1)c1cc2c(ccc3ccccc32)o1,–,inconclusive: -105% [inhibitor]
Nc1c(C(=O)N/N=C/c2ccc([N+](=O)[O-])cc2)cnn1-c1ccccc1,"inconclusive: 7.08 µM [inhibitor, full curve]",–
COC(=O)c1sccc1S(=O)(=O)N1CCN(c2cccc(C)c2C)CC1,–,inactive: 0.192%
COCCCNC(=O)Cn1nnc(-c2ccc(NC(=O)c3ccccc3F)cc2)n1,"inconclusive: 70.8 µM [inhibitor, partial curve, poor fit]",–
Cc1cc(C)c(Cn2c3ccccc3c3cnn(CC(=O)NCCCc4ccccc4)c(=O)c32)c(C)c1,–,inactive: -21.9%
Cc1ccccc1Nc1c(-c2ccsc2)nc2c(C)cccn12,–,inactive: 3.33%
O=C(O)CN(Cc1ccco1)S(=O)(=O)c1ccccc1,"inconclusive: 28.2 µM [inhibitor, single point]",–
